Measured values reported in patent US20030064915A1, “Therapeutic peptides for demyelinating conditions” (priority 2001, published 2003).
At least one structure is not confirmed: it was looked up by name or label, or the drawing left a doubt. No end group written: not given here.

Legend:
HLA-DR2 molecules [1] = molecular target: T1, HLA-DR2 molecules (Homo sapiens, UniProt P01903+P01911); assay: Competitive binding assay: inhibition of biotinylated Cop 1 binding to HLA-DR2 molecules; conditions: biotinylated Cop 1 1.5 μM, recombinant HLA-DR2, one out of two independent experiments
T1 construct: Soluble HLA-DR2 molecules were expressed in Drosophila S2 cells and purified as described; made in house; host or cells: Drosophila S2 cells
Procedure: (§1) Soluble HLA-DR2 molecules were expressed in Drosophila S2 cells and purified as described (Kalandadze A. et al., J. Biol. Chem. 271:20156 (1996)). Cells were grown in roller bottles in ExCell 401 medium (JRH Biosciences, Lenexa, Kans.) supplemented with 2% fetal bovine serum (Sigma Chemicals, St. Louis, Mo.) at 26° C. Cells were harvested 4-5 days after induction by 1 mM CuSO4. Supernatant from harvested cells was passed sequentially through Protein A, Protein G and Protein A-LB3.1 columns, followed by elution of the bound HLA-DR with 50 mM 3-[cyclohexylamino]-1-propanesulfonic acid and neutralized with 200 mM phosphate (pH 6.0). Proteins were concentrated on a Centriprep 10 membrane (Amicon, Beverly, Mass.).
The end product is a mixture of acetate salts of random polypeptides. Copaxone® was obtained by prescription from a pharmacy. […] Unreacted biotin was removed by dialysis (Spectra/Por® membrane molecular weight cut-off 500); Spectrum Medical Industries, Laguna Hills, Calif.).
(§2) The solutions used in this assay are: binding buffer, 20 mM 2-[N-morpholino] ethanesulfonic acid (MES), 140 mM NaCl, and 0.05% NaN3, pH 5.0, unless otherwise specified; PBS, 150 mM sodium chloride, 7.5 mM sodium phosphate, dibasic, and 2.5 mM sodium phosphate, monobasic, pH 7.2; TBS, 137 mM sodium chloride, 25 mM Tris pH 8.0, 2.7 mM potassium chloride; and TTBS, which is TBS with 0.05% Tween-20.
The preparation of microtiter plates for assay of peptide binding employed treated 96-well microtiter immunoassay plates (PRO-BIND™, Falcon, Lincoln Park, N.J.). […] The wells were then blocked with TBS/3% BSA for 1 hr at 37° C. and washed three times with TTBS. Prior to sample addition, 50 μl of TBS/1% BSA was added to each well.
Detection of class II MHC protein/peptide complexes was performed by measuring bound peptide-biotin, which was detected using streptavidin-conjugated alkaline phosphatase, as follows. Plates were washed three times with TTBS and incubated with 100 μl per well of streptavidin-conjugated alkaline phosphatase (diluted 1:3000, BioRad, Richmond, Calif.) for 1 hr at 37° C., followed by addition of p-nitrophenyl phosphate in triethanolamine buffer (BioRad). The absorbance at 410 nm was monitored by a microplate reader (model MR4000; Dynatech, Chantilly, Va.).

HLA-DR2 molecules [2] = molecular target: T1, HLA-DR2 molecules; assay: Competitive binding assay: inhibition of biotinylated MBP 85-99 binding to HLA-DR2 molecules; conditions: biotinylated MBP 85-99 0.13 μM, recombinant HLA-DR2, one out of two independent experiments; read-out: IC50 (μM) vs. biotinylated: MBP 95-99
Procedure: as §1
as §2, with “Tween-20. […]” for “Tween-20.”
Detection of class II MHC protein/peptide complexes was performed by measuring bound peptide-biotin, which was detected using streptavidin-conjugated alkaline phosphatase, as follows. […] The absorbance at 410 nm was monitored by a microplate reader (model MR4000; Dynatech, Chantilly, Va.).

EEAAYKAAKAAAAAA [#111]
IC50 (HLA-DR2 molecules [1]; listed as 111): < 1 µM

EEKAYAAAKAAAAAA [#109]
IC50 (HLA-DR2 molecules [2]): > 1000 µM
IC50 (HLA-DR2 molecules [1]; listed as 109): 3 µM

EEAAYKAAKAAAAAA [#108]
IC50 (HLA-DR2 molecules [2]): > 1000 µM
IC50 (HLA-DR2 molecules [1]; listed as 108): 2 µM

EEKAYAAAKAAAAAA [#110]
IC50 (HLA-DR2 molecules [1]; listed as 110): 20 µM
